These are yes or no findings as the source states them, for the method shown. Binding seen in cells or lysates may run through a third protein. Some entries that bind do so weakly or less than the wild type.
Experiments:
Experiment in all cases: co-IP; endogenous proteins; BMDCs untreated or treated with LPS (100 ng/ml), HEK293T cells treated with TNFα (20 ng/ml) for the indicated times; lysis in 50 mM Tris pH 7.5, 1 mM EGTA, 1 mM EDTA, 1% Triton X-100, 150 mM NaCl; Protein G-agarose and antibodies 4 h at 4°C
[1] = target: p65 (RelA), endogenous in mouse BMDCs (mouse (endogenous in BMDCs)) (UniProt Q04207)
[2] = target: IκBα, endogenous in mouse BMDCs (mouse (endogenous in BMDCs)) (UniProt Q9Z1E3)
[3] = target: T1, IKKβ, endogenous in mouse BMDCs (mouse (endogenous in BMDCs)) (UniProt O88351)
T1 sequence: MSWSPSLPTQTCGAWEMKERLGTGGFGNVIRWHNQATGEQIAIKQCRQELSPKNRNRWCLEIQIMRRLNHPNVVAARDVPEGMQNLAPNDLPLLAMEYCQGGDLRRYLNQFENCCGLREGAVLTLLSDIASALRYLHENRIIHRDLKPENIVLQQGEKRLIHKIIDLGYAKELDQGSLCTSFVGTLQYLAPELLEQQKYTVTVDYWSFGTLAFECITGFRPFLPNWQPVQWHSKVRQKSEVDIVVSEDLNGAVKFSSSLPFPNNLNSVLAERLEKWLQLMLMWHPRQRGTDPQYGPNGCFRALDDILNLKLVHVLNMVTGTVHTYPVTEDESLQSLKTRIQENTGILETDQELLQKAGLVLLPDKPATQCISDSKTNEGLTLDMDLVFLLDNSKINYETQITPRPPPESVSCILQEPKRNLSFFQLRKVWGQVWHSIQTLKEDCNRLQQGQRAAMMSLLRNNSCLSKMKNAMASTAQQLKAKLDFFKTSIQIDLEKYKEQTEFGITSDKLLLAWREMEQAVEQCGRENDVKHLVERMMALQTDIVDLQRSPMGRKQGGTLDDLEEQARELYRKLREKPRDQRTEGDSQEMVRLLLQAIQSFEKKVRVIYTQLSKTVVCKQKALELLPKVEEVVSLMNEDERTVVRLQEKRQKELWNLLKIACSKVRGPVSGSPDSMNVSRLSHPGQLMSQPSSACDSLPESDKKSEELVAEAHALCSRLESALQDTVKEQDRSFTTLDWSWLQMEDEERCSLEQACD

By UniProt entry, the sequences of proteins in these tests, tags left out.
UniProt Q04207: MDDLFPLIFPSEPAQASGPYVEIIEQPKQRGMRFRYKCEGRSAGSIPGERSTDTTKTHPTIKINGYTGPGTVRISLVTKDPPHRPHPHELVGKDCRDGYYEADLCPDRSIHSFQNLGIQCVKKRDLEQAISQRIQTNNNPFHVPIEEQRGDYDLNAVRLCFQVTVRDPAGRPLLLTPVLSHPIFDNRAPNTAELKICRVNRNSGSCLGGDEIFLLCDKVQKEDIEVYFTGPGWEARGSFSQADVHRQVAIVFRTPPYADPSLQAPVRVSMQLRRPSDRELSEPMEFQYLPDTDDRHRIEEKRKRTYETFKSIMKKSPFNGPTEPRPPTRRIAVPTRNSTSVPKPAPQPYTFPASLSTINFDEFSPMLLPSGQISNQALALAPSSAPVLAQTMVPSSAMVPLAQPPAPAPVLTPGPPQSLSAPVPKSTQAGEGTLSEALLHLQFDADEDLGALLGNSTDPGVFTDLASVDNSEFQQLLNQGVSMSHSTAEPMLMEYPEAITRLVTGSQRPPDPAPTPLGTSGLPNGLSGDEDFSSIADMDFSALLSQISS
UniProt Q9Z1E3: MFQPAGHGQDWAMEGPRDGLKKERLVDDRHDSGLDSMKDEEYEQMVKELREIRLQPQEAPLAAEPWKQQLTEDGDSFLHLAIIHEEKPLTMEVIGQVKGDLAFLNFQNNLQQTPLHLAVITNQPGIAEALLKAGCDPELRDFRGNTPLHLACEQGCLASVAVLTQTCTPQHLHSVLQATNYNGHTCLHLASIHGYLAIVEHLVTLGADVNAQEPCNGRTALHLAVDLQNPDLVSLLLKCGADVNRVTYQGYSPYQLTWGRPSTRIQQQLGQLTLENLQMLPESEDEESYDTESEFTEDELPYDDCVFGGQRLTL
UniProt Q6NZM9: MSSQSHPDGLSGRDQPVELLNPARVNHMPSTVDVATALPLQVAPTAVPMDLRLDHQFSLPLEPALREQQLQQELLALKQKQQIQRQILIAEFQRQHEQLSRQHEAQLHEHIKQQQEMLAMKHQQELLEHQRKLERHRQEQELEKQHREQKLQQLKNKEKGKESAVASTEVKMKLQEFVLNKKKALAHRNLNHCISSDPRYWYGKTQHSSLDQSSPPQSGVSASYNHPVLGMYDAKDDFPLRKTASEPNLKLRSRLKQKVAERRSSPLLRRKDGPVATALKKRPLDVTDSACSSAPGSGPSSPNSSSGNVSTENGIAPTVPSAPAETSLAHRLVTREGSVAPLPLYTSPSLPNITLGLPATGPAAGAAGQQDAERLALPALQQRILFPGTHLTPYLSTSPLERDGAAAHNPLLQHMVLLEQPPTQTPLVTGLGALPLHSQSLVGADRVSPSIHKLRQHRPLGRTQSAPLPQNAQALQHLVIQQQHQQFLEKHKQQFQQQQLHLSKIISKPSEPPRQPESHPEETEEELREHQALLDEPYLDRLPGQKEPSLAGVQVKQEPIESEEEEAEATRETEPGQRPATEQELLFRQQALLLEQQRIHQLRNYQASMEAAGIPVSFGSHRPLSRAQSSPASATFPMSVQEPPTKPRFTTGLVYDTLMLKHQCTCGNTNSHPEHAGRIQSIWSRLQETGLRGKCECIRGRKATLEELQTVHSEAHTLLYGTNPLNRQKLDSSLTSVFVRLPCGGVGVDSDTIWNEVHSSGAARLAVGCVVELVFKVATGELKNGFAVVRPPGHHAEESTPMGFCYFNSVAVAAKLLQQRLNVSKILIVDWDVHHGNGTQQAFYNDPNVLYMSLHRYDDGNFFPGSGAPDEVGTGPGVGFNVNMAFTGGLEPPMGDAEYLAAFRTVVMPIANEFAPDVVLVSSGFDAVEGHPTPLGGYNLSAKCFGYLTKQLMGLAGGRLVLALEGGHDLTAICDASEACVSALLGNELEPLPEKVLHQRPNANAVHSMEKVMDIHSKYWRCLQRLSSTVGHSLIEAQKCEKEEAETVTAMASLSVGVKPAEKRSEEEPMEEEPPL

binding [1] | binding [2] | binding [3] | Substance
binds | binds | binds | histone deacetylase 4 (HDAC4), endogenous in mouse BMDCs (from UniProt Q6NZM9 1-1076)
 | binds |  | p65 (RelA), endogenous in mouse BMDCs (from UniProt Q04207 1-549)
